Values of other authors in US20170151256A1, “ANTITUMOR AGENT” (ZERIA PHARMACEUTICAL CO., LTD., priority 2005, published 2017).
The structures given here were assigned with low confidence; some may be wrong.

By UniProt entry, the sequences of proteins in these tests, tags left out.
UniProt P30553, whole entry: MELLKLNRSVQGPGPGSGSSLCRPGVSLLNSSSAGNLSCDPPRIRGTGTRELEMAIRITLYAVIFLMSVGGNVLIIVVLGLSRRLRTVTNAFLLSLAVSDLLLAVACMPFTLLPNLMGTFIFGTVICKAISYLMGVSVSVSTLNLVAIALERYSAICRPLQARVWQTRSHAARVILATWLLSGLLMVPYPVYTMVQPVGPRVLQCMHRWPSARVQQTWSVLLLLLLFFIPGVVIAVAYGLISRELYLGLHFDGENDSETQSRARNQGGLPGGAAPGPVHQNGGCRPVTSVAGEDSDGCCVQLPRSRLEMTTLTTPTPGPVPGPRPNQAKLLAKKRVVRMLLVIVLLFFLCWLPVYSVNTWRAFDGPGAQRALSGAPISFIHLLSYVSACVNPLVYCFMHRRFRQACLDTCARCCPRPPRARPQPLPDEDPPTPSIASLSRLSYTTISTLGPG

Tests used:
rat gastrin receptor = rat gastrin receptor (Rattus norvegicus, UniProt P30553); settings: read-out: Ki value, binding affinity to rat gastrin receptor; Gastroenterology 2001; A-311: 1605; cited from earlier work
[1] = tested on: gastrin-stimulated gastric acid secretion; settings: intraduodenal administration, rat; Gastroenterology 2001; A-311: 1605; cited from earlier work

For CC(C)(C)C(=O)CN1C(=O)[C@H](NC(=O)Nc2cccc(C(=O)O)c2)CN(C2CCCCC2)c2ccccc21 [compound A, (R)-(−)-3-[3-(1-tert-butylcarbonylmethyl-2-oxo-5-cyclohexyl-1,3,4,5-tetrahydro-2H-1,5-benzodiazepin-3-yl)ureido]benzoic acid], the Ki (rat gastrin receptor) is listed as 240 pM and the “Dose suppressing gastrin-stimulated gastric acid secretion by 50%” value [1] is listed as 0.17 mg/kg.
